Laboratory results published in the supplement of paper PMC3334620.
In all, about 33,000 sequences were measured (“E-score (-0.5 to 0.5)”: median about -0.0014, highest 2% from about 0.25 on). This is one part of the list.

What follows are sequences tested against T1, Cad1 (UniProt P24813) (assay: PBM E-score (8-mer binding enrichment) (E-score (-0.5 to 0.5)); higher = stronger / more preferred TF binding). Conditions: protein concentration: 100 nM; construct: GST-full length.
T1 sequence: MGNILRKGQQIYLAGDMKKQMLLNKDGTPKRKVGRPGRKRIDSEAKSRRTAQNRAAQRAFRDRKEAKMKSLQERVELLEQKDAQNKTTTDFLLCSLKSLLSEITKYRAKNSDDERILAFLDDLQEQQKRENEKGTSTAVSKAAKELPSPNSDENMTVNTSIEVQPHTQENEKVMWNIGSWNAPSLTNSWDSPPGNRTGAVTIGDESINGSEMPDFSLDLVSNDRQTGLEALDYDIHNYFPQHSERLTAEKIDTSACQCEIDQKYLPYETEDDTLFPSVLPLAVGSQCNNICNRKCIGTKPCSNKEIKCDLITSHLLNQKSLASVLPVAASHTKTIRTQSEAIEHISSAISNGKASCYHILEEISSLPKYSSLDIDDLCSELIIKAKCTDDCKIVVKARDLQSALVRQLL
Procedure, shortened: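 Using PURExpress in vitro transcription/translation, GST-tagged yeast transcription factors were made in full-length or DNA-binding-domain form. These were applied at about 100-200 nM to double-stranded universal all-10-mer Agilent arrays, and bound protein was detected with fluorescent anti-GST. Scans were normalised with masliner before the Universal PBM Analysis Suite assigned E-scores to ungapped eight-base words pooled with their reverse complements.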

Sequence	PBM E-score
GACTTACA	-0.0033
CACTAGTA	0.0511
GATGCCTA	-0.251
GCGGTGCC	-0.171
ATTAGTCG	0.205
CACATCAG	-0.153
GGGTAGTA	-0.184
AGTACGCC	-0.293
ACGGTCTC	-0.0778
CCTAACAC	0.191
CGGCTTAG	0.00179
ACTCCCTA	-0.107
AAGGACAA	0.0988
AATTTGTG	0.225
AAACTTCT	0.124
GGCAAGCC	-0.241
TAGCGCAA	0.207
GCGTATTA	0.153
GTAGCGCA	0.132
CCGGCTAA	0.0637
CTGGGACA	-0.173
AACGCACT	-0.0236
GACTAGCA	-0.128
AATCGAAT	0.246
GCCCAGGA	-0.086

Four records drawn at random from those above:
Sequence	PBM E-score
GACTAGCA	-0.128
GACTTACA	-0.0033
ATTAGTCG	0.205
GCCCAGGA	-0.086

Next part.

Sequence	PBM E-score
GCGGCAGC	-0.0727
TAACTATA	0.0556
CTGCCGCA	-0.0367
CTATAATC	0.0668
ACGCTGTA	0.127
ACGTAGGA	-0.0696
CTTTAGAA	0.0493
GGCGAAAA	0.0511
AGCAGAGA	-0.107
ACGAAATG	-0.0259
AGCGCCGC	0.069
AATGCCGA	0.0466
CACCCGAA	0.142
GTCGTCGA	-0.119
AGAAGGCA	-0.243
CCGAGCAC	-0.0401
GCATTTAA	0.0157
CCATCGCG	0.229
GAAGTCCA	-0.121
GGGAGCGA	-0.188
GATCTAAA	0.0196
ATCACTCA	0.103
ACTAGAGG	-0.261
CCGAGTGA	0.0253
GATACTCA	0.0677

Sequence	PBM E-score
GACTCGCC	-0.296
CATCTGGG	-0.088
GCTTAGCC	-0.148
GGGATGCA	-0.167
ACAATCTA	-0.0578
AGACACGA	0.00772
ATCTACCG	0.119
TGACTGAA	-0.0472
AACTAGAG	-0.176
CGCACACC	0.0191
ACGGCTTA	0.152
AATTACAA	0.0797
AACATAAA	0.0346
GGGGACGA	-0.146
AGATTTAT	0.123
ACAACACG	0.109
CCATACGG	-0.0658
TTAGGCAA	-0.0641
GGCACTAA	0.108
CCGGGTCG	-0.00042
CGGCAAGA	0.126
ACGGTGCT	-0.19
CGACGCGA	-0.0839
GGCTCAGA	-0.117
GGCATCCC	-0.228

Sequence	PBM E-score
ACCGGATG	0.0332
AGGATGAT	0.105
CGGCGCGA	0.203
AGCCCACT	-0.0992
ACCCGATA	-0.0464
CATCCAGA	-0.167
CCACACAA	-0.125
CGTGGTGA	-0.0563
ACTAGCAA	-0.00235
GTCGTAGA	0.0902
AGCCCCCT	-0.391
CTTGTAGC	0.0447
ACGCGGAC	-0.0578
GCTGGTAC	0.029
CCACGCCA	-0.0373
AGCTCCTA	-0.182
CTATGCGC	0.06
AGTAAGCA	0.241
CAACCTTC	-0.0566
GCTTTTCC	-0.0546
TCTCGCAA	-0.0928
GAGCATCA	-0.0201
GAGGGCTA	-0.142
TCTGATCA	0.182
AAAGTACA	-0.00569

Sequence	PBM E-score
GAGTGTTA	0.0874
ACTTTGAT	-0.0191
AAAAATAG	0.0801
AATGGTAC	0.0403
GGTGCTGA	-0.0741
AGCCGTCC	-0.0511
ACATCCAC	0.107
CCCTATCG	-0.124
ATTCCGAA	0.245
ATGGGAAC	-0.0325
CGTCCTTC	0.047
TCTAGCAA	-0.0137
AGAAAGGC	-0.131
CGTATAGA	0.0286
GCATCTAA	0.194
CACGGAAC	0.142
ACTTAGTC	-0.016
TATAGTGA	0.074
GTGTTAAC	0.168
TCGTAGCA	0.131
CGCCCACC	-0.0903
ACTTAAAT	-0.103
ACTGTAAG	0.167
AGCTTGTA	0.0676
ACTTAGAC	0.0693

Single entries from the list.
Value for ATCACTCA under PBM E-score: 0.103
Value for AACGCACT under PBM E-score: -0.0236
Value for CGTATAGA under PBM E-score: 0.0286
Value for GCATCTAA under PBM E-score: 0.194
Value for GCTGGTAC under PBM E-score: 0.029
Value for GGCAAGCC under PBM E-score: -0.241
Value for CGTCCTTC under PBM E-score: 0.047

Carrying on:

Sequence	PBM E-score
GCCCTACA	0.00587
ATAAAGAT	0.0729
GGAGAGAC	-0.225
GGATGTCA	0.0717
CCGTGAGA	0.00771
CTCTGCTA	-0.242
ACGCAGTA	-0.155
ATCTTGCG	0.0982
CACGTTTC	-0.176
ATCACTGG	0.00347
ATGCTCAA	-0.0662
CAGTCGCG	-0.00755
GGACACAA	0.0879
CATCATAG	0.132
CCTACCAC	-0.288
ATAGCGGG	-0.222
GAAGGGCC	-0.0244
GTCCAATA	0.162
GAGACGCA	0.0404
CAGGTGTA	-0.135
GCGCGGAA	0.13
GCTGCGTA	0.0998
CAGTGAAC	0.123
GATAAGAC	-0.00501
GTAACCAA	0.119

Sequence	PBM E-score
ACTTTCAA	0.108
GCCTGCGC	-0.0489
ACACCGGA	-0.144
GACGTAAA	0.0659
CATGCGGG	-0.115
AGGCGGGA	0.0276
CAAGCGTC	0.132
ATGGCTAC	-0.0325
GACTACTA	0.197
GAGACATC	-0.186
CTATAAGC	-0.0776
CAGGTACG	-0.269
CGCAATCA	0.0689
AAGAAAAT	0.167
CCATAGTC	-0.0534
ACAATGGT	-0.0362
GAATGGTC	-0.0781
AAGCGATT	0.187
CCCGTCCA	-0.164
AGACCTCG	0.0835
GATAAGTA	0.0851
AACCCCAA	0.113
